Calls as published in the ROBIN set (doi:10.1002/anie.202211358).

Oligonucleotides screened, 5′ to 3′:
T1: TPP riboswitch RNA three-way junction, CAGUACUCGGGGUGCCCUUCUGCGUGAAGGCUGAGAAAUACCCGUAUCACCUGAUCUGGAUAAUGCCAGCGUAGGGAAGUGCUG. About 160 hits among about 24,000 compounds.
T2: PreQ1 riboswitch RNA pseudoknot, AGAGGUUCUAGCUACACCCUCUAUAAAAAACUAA. From B. subtilis. About 170 hits among about 24,000 compounds.
T3: SAM-II riboswitch RNA pseudoknot, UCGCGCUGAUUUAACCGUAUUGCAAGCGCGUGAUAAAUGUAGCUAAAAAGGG. About 200 hits among about 21,000 compounds.

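The test is a small-molecule microarray: each compound is printed twice on a reactive slide, and binding shows as fluorescence of the labelled oligonucleotide after washing. For the PreQ1, TPP and SAM-II riboswitches the laboratory earlier reported (doi:10.1038/s41467-019-09493-3) 1 µM RNA, 2 h, and a rule that included a mean Z-score above 3 (spot signal-to-noise against the whole library), a score well above that on a control array, and duplicate spots agreeing (coefficient of variation under 100). The data file gives only the calls; its cut-offs may differ, and compounds hitting several targets are kept. The calls come from the array alone, and fixing a compound to the slide can hide its binding.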
A compound is marked active if it was called a hit and inactive if it was screened but was not.
This is an unselected part of the compounds tested.
A target missing from an entry has no call listed here.
A dash means that no call is listed here.

| Compound | T1 | T2 | T3 |
|---|---|---|---|
| `CCN(CC)CCNS(=O)(=O)c1cc(Br)cnc1N` | inactive | inactive | - |
| `CN(Cc1cnn(-c2ccc(F)cc2)c1)C(=O)[C@@H](N)Cc1ccccc1` | inactive | inactive | inactive |
| `COC(=O)c1ccc(NS(=O)(=O)c2cc(Br)cnc2N)cc1` | inactive | inactive | - |
| `CSc1ncc(CNC(=O)c2cn(CCC3CCCCN3)nn2)n1C` (centres unmarked) | inactive | inactive | inactive |
| `Cc1cc(N2CCN(C(=O)CCC3NC(=O)NC3=O)CC2)nc(N)n1` (centres unmarked) | inactive | inactive | inactive |
| `O=C(N[C@@H]1c2ccccc2C[C@@H]1O)c1ccc(-c2ccccc2)[nH]c1=O` | inactive | inactive | inactive |
| `Cn1c(=O)n(C)c2cc(C(O)COc3ccc(CNC4CCCCC4)cc3)ccc21` (centres unmarked) | inactive | inactive | - |
| `Cc1nn(C)c(C)c1CCC(=O)N1C[C@@H]2c3ccccc3OC[C@]2(CO)C1` | inactive | inactive | inactive |
| `O=C(CN1CCC2(CCC(=O)N(CCc3ccccc3)C2)CC1)N1CCNCC1` | inactive | inactive | inactive |
| `Cc1ccccc1C1C(C#N)=C(N)Oc2c1c(=O)n(C)c1ccccc21` (centres unmarked) | inactive | inactive | inactive |
| `CCCCc1sc(-c2c(C#N)c(N)nc3c2CCCC3)cc1[N+](=O)[O-]` | inactive | inactive | inactive |
| `Cc1ccc(C2(O)CCN(C(=O)c3cccc4c3NCCC4)CC2)nc1` | inactive | inactive | inactive |
| `O=C1N(CCC2CCCCC2)CCCC12CCNC2` (centres unmarked) | inactive | inactive | inactive |
| `CN1CCCN(c2ncccc2CNC(=O)C(O)c2ccc(F)cc2)CC1` (centres unmarked) | inactive | inactive | inactive |
| `C[C@@H]1CC[C@@]2(OC1)OC1CC3C4CC=C5CC(O)CCC5(C)C4CCC3(C)C1[C@@H]2C` (some centres unmarked) | inactive | inactive | inactive |
| `Cl.c1ccc(CNCc2nnc(-c3ccccc3)o2)cc1` | inactive | inactive | inactive |
| `O=C(NCCO)c1cnc2sc3c(n2c1=O)CCCC3` | inactive | inactive | - |
| `Nc1c2c(nc3ccccc13)CCCC2` | inactive | inactive | inactive |
| `Cc1ccc2nc(Nc3ccccc3O)c3nncn3c2c1` | inactive | inactive | - |
| `O=C(N(c1ccccc1)c1ccccc1)N(c1ccccc1)c1ccccc1` | inactive | inactive | inactive |
| `Oc1cc(CNCC2CCOCC2)nc2c(F)cccc12` | inactive | inactive | inactive |
| `CCNc1nc(Oc2ccc(O)nn2)nc(N2CCOCC2)n1` | inactive | inactive | inactive |
| `O=C1OC(Nc2nc(-c3cccc(Br)c3)cs2)c2ccccc21` (centres unmarked) | inactive | inactive | inactive |
| `Cc1cc(OCC(O)Cn2c(C3CC(=O)N(C(C)(C)C)C3)nc3ccccc32)ccc1Cl` (centres unmarked) | inactive | inactive | - |
| `C=CCOC(=O)C1=C(C)OC(N)=C(C#N)C1c1ccc(Cl)cc1Cl` (centres unmarked) | inactive | inactive | inactive |
| `Cc1ccccc1-c1cc(O)c2c(c1)CN(C(=O)c1ccnc(N)c1)CCO2` | inactive | inactive | inactive |
| `Cc1cc(Nc2cccc(Cl)c2C)n2ncnc2n1` | inactive | inactive | inactive |
| `Cc1ccc(S(=O)(=O)N(CCO)CC(O)Cn2c3ccccc3c3ccccc32)cc1` (centres unmarked) | inactive | inactive | inactive |
| `Nc1nnc(S)n1-c1ccc(Cl)cc1` | inactive | inactive | inactive |
| `Nc1ccc(-c2ccc(C(=O)NCCC3COc4ccccc4O3)cn2)cn1` (centres unmarked) | inactive | inactive | inactive |
| `O=C(CN1CC(c2ccccc2)CC1=O)NCCNc1cccnc1` (centres unmarked) | inactive | inactive | inactive |
| `Cc1cc(S(=O)(=O)[C@H]2CS(=O)(=O)C[C@@H]2NCC(C)C)ccc1F` | inactive | inactive | - |
| `CCCCNc1nc(N(c2ccccc2)c2ccccc2)nc(-n2ccnc2)n1` | inactive | inactive | inactive |
| `COc1ccc(C2CC(=O)c3cnc(NC4OC(=O)c5ccccc54)nc3C2)cc1OC` (centres unmarked) | inactive | inactive | inactive |
| `O=C1[C@@H]2C[C@H](O)CCN2C(=O)CN1Cc1ccc(Cl)nc1` | inactive | inactive | inactive |
| `OCC1CN1C1CCCCC1` (centres unmarked) | inactive | inactive | inactive |
| `CN(C)c1ccc(NC2CC(=O)N(c3ccccc3)C2=O)cc1` (centres unmarked) | inactive | inactive | inactive |
| `COc1ccc2c(c1OC)C(=O)OC2Nc1ccc(Br)cn1` (centres unmarked) | inactive | inactive | inactive |
| `CCOC(=O)c1cnc2c(C)cc(Cl)cc2c1NCCCO` | inactive | inactive | inactive |
| `c1ccc(Nc2cccc3c(Nc4ccccc4)cccc23)cc1` | inactive | inactive | inactive |
| `CCOc1ccc(CNc2nc3nc(C)cc(C)n3n2)cc1` | inactive | inactive | - |
| `COCc1cc(C)nc2sc(-c3ccccn3)c(N)c12` | inactive | inactive | inactive |
| `CS(=O)(=O)N1CCN(Cc2cc3nc(-c4cccc5[nH]ncc45)nc(N4CCOCC4)c3s2)CC1` | inactive | inactive | inactive |
| `Nc1nnc(CCNC(=O)c2n[nH]c3c2CCC3)s1` | inactive | inactive | inactive |
| `O=C(CN1CCN(c2nccc(N3CCCC(O)C3)n2)CC1)N1CCCC1` (centres unmarked) | inactive | inactive | inactive |
| `O=C(O)[C@@H]1CN(C[C@H]2[C@@H]3CNC[C@@H]32)C[C@H]1c1ccccc1` | inactive | inactive | inactive |
| `COc1ccc(-c2ccc(CNCc3ccccn3)o2)cc1Cl` | inactive | inactive | - |
| `CC(=O)C1=C(C)OC(N)=C(C#N)C12C(=O)Nc1ccccc12` (centres unmarked) | inactive | inactive | inactive |
| `c1ccc2sc(SCSc3nc4ccccc4s3)nc2c1` | inactive | inactive | inactive |
| `COCC(=O)Nc1cccc(NC(=O)N2CCC(N)C2)c1C` (centres unmarked) | inactive | inactive | inactive |
| `O=C(CC1CNCCO1)NCc1cnn(Cc2ccccc2)c1` (centres unmarked) | inactive | inactive | inactive |
| `CCn1c(N)c(C(=O)NCC2CCCO2)sc1=S` (centres unmarked) | inactive | inactive | inactive |
| `Cc1cc(Nc2cccc(C)c2C)n2nc(-c3cccnc3)nc2n1` | inactive | inactive | - |
| `O=C(Nc1ccc(Cl)cc1)Nc1cccc2nsnc12` | inactive | inactive | inactive |
| `Nc1ccc(-c2nc3ccccc3s2)cc1` | inactive | inactive | inactive |
| `COC(=O)c1ccc(OCC(O)CN2CCC(C)CC2)cc1` (centres unmarked) | inactive | inactive | inactive |
| `COc1ccccc1Nc1nc(-c2ccccc2)c(CC(=O)O)s1` | inactive | inactive | inactive |
| `COC(=O)c1c(N)n(C(C)c2ccccc2)c2nc3ccccc3nc12` (centres unmarked) | inactive | inactive | inactive |
| `CCn1c(N)nc2cc(C(=O)NCCCc3nc4ccccc4o3)cnc21` | inactive | inactive | inactive |
| `CC(C)C(=O)Nc1ccc(-c2cnccc2N)cc1` | inactive | inactive | inactive |
| `CCOc1ccc(NC2c3ccccc3C(=O)N2c2cccnc2)cc1` (centres unmarked) | inactive | inactive | inactive |
| `COc1cccc(-c2ccc3c(N)c(C(=O)Nc4cc(OC)ccc4Cl)sc3n2)c1` | inactive | inactive | inactive |
| `COc1ccc(CNCc2ccc3c(c2)OCO3)cc1` | inactive | inactive | inactive |
| `N=c1n(CCN2CCOCC2)c2ccccc2n1CC(O)COc1ccccc1` (centres unmarked) | inactive | inactive | inactive |
| `CCOc1ccc(NC2=C(C(N)=O)S(=O)(=O)c3ccccc32)cc1` | inactive | inactive | - |
| `CCOCCCNc1oc(-c2ccc(S(=O)(=O)N(C)C)cc2)nc1C#N` | inactive | inactive | - |
| `CC1CCC(Nc2ncnc3onc(-c4ccc(F)cc4)c23)CC1` (centres unmarked) | inactive | inactive | - |
| `O=C([O-])[C@H](CC(=O)N1C[C@@H]2CCCC[C@H]2C1)Cc1ccccc1` | inactive | inactive | inactive |
| `Cc1cccc(NC(c2ccccc2)c2nnc(-c3ccccc3)o2)c1` (centres unmarked) | inactive | inactive | inactive |
| `NCCc1cn(Cc2cscn2)nn1` | inactive | inactive | inactive |
| `O=C1C[C@H]2CC[C@@H](CN1Cc1cc(C3CCCCC3)no1)N2` | inactive | inactive | inactive |
| `COC(=O)c1c(N)sc2c1CCCCC2` | inactive | inactive | - |
| `Cc1ccc(NC(=O)CCc2c(C)nc3nc(CN)nn3c2C)c(C)c1` | inactive | inactive | - |
| `Cc1c(S(=O)(=O)c2ccccc2)c(N)n(CCN2CCOCC2)c1C` | inactive | inactive | inactive |
| `COc1ccc(CCNc2ncnc3sc4c(c23)CCCC4)cc1OC` | inactive | inactive | inactive |

Once more, the final 8:

{"compound": "O=C([O-])[C@H](CC(=O)N1C[C@@H]2CCCC[C@H]2C1)Cc1ccccc1", "T1": "inactive", "T2": "inactive", "T3": "inactive"}
{"compound": "Cc1cccc(NC(c2ccccc2)c2nnc(-c3ccccc3)o2)c1", "stereo": "centres unmarked", "T1": "inactive", "T2": "inactive", "T3": "inactive"}
{"compound": "NCCc1cn(Cc2cscn2)nn1", "T1": "inactive", "T2": "inactive", "T3": "inactive"}
{"compound": "O=C1C[C@H]2CC[C@@H](CN1Cc1cc(C3CCCCC3)no1)N2", "T1": "inactive", "T2": "inactive", "T3": "inactive"}
{"compound": "COC(=O)c1c(N)sc2c1CCCCC2", "T1": "inactive", "T2": "inactive"}
{"compound": "Cc1ccc(NC(=O)CCc2c(C)nc3nc(CN)nn3c2C)c(C)c1", "T1": "inactive", "T2": "inactive"}
{"compound": "Cc1c(S(=O)(=O)c2ccccc2)c(N)n(CCN2CCOCC2)c1C", "T1": "inactive", "T2": "inactive", "T3": "inactive"}
{"compound": "COc1ccc(CCNc2ncnc3sc4c(c23)CCCC4)cc1OC", "T1": "inactive", "T2": "inactive", "T3": "inactive"}